Assay results: US11020449B2, “Use of the GK-1 peptide as an antitumoral and/or antimetastatic agent” (UNIVERSIDAD NACIONAL AUTÓNOMA DE MÉXICO, priority 2016, dated 2021)

Tested on: 4T1 cells
Conditions: day 39

G-Y-Y-Y-P-S-D-P-N-T-F-Y-A-P-P-Y-S-A (GYYYPSDPNTFYAPPYSA; tapeworm) [GK-1]
slope of correlation between spleen weight and primary tumor weight: lower than 0.57
weight of the spleen with respect to tumor-free mice: increased significantly with respect to tumor-free mice
